3 substances from paper PMC4642342 can be followed below.

Sequences of proteins named here, by UniProt entry; tags and fusion partners are left off. A change or cut given only in a name is not applied to a line headed by its entry.
UniProt Q16665: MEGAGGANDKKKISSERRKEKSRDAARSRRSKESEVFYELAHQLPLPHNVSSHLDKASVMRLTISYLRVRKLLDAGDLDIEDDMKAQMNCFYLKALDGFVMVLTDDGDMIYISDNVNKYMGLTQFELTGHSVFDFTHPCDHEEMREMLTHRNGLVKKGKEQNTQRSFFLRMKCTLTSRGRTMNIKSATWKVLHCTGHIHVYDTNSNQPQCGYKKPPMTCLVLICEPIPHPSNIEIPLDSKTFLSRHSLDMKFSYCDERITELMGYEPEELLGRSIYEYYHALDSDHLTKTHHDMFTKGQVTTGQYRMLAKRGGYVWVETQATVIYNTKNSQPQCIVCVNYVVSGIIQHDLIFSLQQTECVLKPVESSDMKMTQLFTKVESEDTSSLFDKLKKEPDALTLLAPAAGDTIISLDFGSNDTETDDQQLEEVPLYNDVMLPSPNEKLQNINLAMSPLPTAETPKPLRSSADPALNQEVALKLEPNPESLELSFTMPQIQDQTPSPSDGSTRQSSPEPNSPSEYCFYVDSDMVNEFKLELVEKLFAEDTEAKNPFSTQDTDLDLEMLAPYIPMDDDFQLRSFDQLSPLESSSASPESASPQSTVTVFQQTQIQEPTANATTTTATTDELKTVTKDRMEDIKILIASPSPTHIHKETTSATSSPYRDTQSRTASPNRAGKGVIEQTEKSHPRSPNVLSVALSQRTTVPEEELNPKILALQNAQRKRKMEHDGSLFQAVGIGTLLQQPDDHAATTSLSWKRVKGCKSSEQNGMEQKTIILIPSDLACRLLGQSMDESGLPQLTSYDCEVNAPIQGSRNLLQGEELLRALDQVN
UniProt Q96BA8: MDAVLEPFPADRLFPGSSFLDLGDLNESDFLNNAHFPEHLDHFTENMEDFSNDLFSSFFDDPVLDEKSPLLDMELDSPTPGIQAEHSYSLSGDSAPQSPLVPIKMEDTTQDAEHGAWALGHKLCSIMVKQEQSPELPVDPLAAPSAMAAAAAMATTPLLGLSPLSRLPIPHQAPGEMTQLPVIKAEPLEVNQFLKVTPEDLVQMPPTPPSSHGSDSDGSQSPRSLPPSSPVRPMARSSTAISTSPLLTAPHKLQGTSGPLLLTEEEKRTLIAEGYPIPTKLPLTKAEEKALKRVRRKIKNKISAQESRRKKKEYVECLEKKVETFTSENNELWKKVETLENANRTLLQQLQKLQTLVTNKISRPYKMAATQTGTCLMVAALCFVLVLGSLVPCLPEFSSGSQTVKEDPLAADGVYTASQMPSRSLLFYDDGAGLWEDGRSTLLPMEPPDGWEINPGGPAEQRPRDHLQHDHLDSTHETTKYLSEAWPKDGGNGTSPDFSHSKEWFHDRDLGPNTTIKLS

For assay [1], the target named is hypoxia-inducible factor-1α (HIF-1α), endogenous in hypoxia-exposed HEK293T cells (human (endogenous in HEK293T)) (UniProt Q16665). The assay can be described thus: co-IP; HEK293T cells transfected with Flag-tagged OASIS-N and exposed to hypoxia; lysates precipitated with anti-Flag or anti-HIF-1α antibodies and rProtein G agarose, 4 °C overnight, washed in lysis buffer with 150 mM NaCl; blots with anti-HIF-1α and anti-OASIS.

Assay [2] deals with Flag-tagged OASIS N-terminus (Flag-OASIS-N) (human) (UniProt Q96BA8). The assay can be described thus: co-IP; HEK293T cells transfected with HIF-1α P-A and FLAG-OASIS-N or FLAG-OASIS-N ΔbZIP; lysates precipitated with anti-Flag antibodies; blots with anti-HIF-1α and anti-OASIS.
Assay [3] has the same target. Put plainly: co-IP; HEK293T cells transfected with Flag-tagged OASIS-N and exposed to hypoxia; lysates precipitated with anti-Flag or anti-HIF-1α antibodies and rProtein G agarose, 4 °C overnight, washed in lysis buffer with 150 mM NaCl; blots with anti-HIF-1α and anti-OASIS.

No constants are given. Whether binding was seen depends on the method and setting. Binding seen in cells or lysates may run through a third protein. Binding can be weak; no strength is given.

Regarding “Flag-tagged OASIS N-terminus (Flag-OASIS-N) (from UniProt Q96BA8) (domain or fragment)”, in assay [1], the binding entry is listed as “binds”. On to “HIF-1α P402A/P564A (HIF-1α P-A; constitutively activated stabilized form) (from UniProt Q16665 1-826)”, for which, in assay [2], the binding entry was “binds”. Consider “hypoxia-inducible factor-1α (HIF-1α), endogenous in hypoxia-exposed HEK293T cells (from UniProt Q16665 1-826)”, for which the binding entry in assay [3] is listed as “binds”.
